Results are given in words; binding and its absence hold for the method and conditions named. Binding seen in cells or lysates may run through a third protein. Some binding calls cover weakened binding; strength is not graded here. Tags and fused reporters may be left off the sequences shown.
Tests used:
[1] = molecular target: GST-PINK1(156–509), kinase domain (human) (UniProt Q9BXM7); experiment: pull-down; GST fusion from E. coli crude extract held on glutathione agarose beads and washed with PBS; incubated with 50 µg of protein from the supernatant of E. coli crude extract with His-PINK1 or His-BAG5 in 0.25 ml HNTG buffer (20 mM HEPES-KOH pH 7.5, 100 mM NaCl, 0.1% Triton X-100, 10% glycerol), 2 h at 4°C; immunoblot; only the target purified
GST-PINK1(1–581) (human) = GST-PINK1(1–581) (human) (UniProt Q9BXM7); experiment: as above

- binding [1]: binds
- binding (GST-PINK1(1–581) (human)): binds
B1: His-BAG5 (protein, UniProt Q9UL15 1-447)
chain: MDMGNQHPSISRLQEIQKEVKSVEQQVIGFSGLSDDKNYKKLERILTKQLFEIDSVDTEGKGDIQQARKRAAQETERLLKELEQNANHPHRIEIQNIFEEAQSLVREKIVPFYNGGNCVTDEFEEGIQDIILRLTHVKTGGKISLRKARYHTLTKICAVQEIIEDCMKKQPSLPLSEDAHPSVAKINFVMCEVNKARGVLIALLMGVNNNETCRHLSCVLSGLIADLDALDVCGRTEIRNYRREVVEDINKLLKYLDLEEEADTTKAFDLRQNHSILKIEKVLKRMREIKNELLQAQNPSELYLSSKTELQGLIGQLDEVSLEKNPCIREARRRAVIEVQTLITYIDLKEALEKRKLFACEEHPSHKAVWNVLGNLSEIQGEVLSFDGNRTDKNYIRLEELLTKQLLALDAVDPQGEEKCKAARKQAVRLAQNILSYLDLKSDEWEY

Reference: article PMC3901670
